Reference: patent US20050074865A1
These are yes or no findings as the source states them, for the method shown. Some results given as binding are weak or reduced against the parent protein; the word gives no strength. Where a sequence is shown, tags or fusion partners need not be part of it.

The chains behind the UniProt entries cited, without tags or fusion partners. Residues count along the entry.
UniProt P01375, residues 77-233: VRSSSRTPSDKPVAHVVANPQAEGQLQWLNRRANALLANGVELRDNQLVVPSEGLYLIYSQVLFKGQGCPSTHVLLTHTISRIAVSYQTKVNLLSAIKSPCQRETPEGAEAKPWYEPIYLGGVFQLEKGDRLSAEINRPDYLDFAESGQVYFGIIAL

Legend:
[1] = target: S-TNF, human TNFα fusion protein with an N-terminal S-Tag (human) (UniProt P01375); assay: indirect ELISA: sp55 captured on Ni-NTA wells, S-TNF detected with S-protein-HRP
[2] = target: S-TNF, human TNFα fusion protein with an N-terminal S-Tag (human) (UniProt P01375); assay: indirect ELISA: sp55 from conditioned medium captured on Ni-NTA wells, S-TNF at 1 ug/mL, detection with S-protein HRP and TMB, OD 370 nm
[3] = target: S-TNF, human TNFα fusion protein with an N-terminal S-Tag (human) (UniProt P01375); assay: legend of FIG. 11 (indirect ELISA with S-TNF)

- binding [1]: binds
- binding [2]: binds
- binding [3]: binds
B1: sp55, full-length ecto-domain of human TNFR-1 (residues 30-211) with C-terminal myc and His6 tags, expressed from pSecTag2A (receptor)
chain: DAAQPARRAVRSLVPHLGDREKRDSVCPQGKYIHPQNNSICCTKCHKGTYLYNDCPGPGQDTDCRECESGSFTASENHLRHCLSCSKCRKEMGQVEISSCTVDRDTVCGCRKNQYRHYWSENLFQCFNCSLCLNGTVHLSCQEKQNTVCTCHAGFFLRENECVSCSNCKKSLECTKLCLPQIENVKGTEDSGTTRGGPEQKLISEEDLNSAVDHHHHHH
